Results from one PubChem assay

Data taken from PubChem BioAssay AID504749, deposited by NCATS (2011).

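Malaria parasite (P. falciparum) lines kept in red blood cells; parasite DNA is measured by SYBR Green fluorescence after lysis, 72 h after compound addition.
Each compound was titrated across a series from about 0.000037 to 29 µM.
The number is the fitted AC50, the concentration giving a half-maximal change in signal; a lower value means higher potency, whether the curve shows a decrease or an increase.
Calls follow the curve class and fit quality: every row here is inconclusive, covering signal-raising curves and weak, poorly fitted, partial or highest-dose-only inhibition curves.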

Values are in µM.
All entries here are filed as inconclusive.
These entries are mostly ones the record files as inconclusive; other results of the assay are not listed here.
Potencies fitted to partial, single-point or poorly fitting curves are rough.
Some entries filed as inconclusive have a full curve.

| SMILES | setting | potency (µM) | curve |
|---|---|---|---|
| `O=C(OC1C[C@H]2CC[C@@H](C1)[N+]21CCCC1)C(O)(c1ccccc1)c1ccccc1` (some centres undefined) | PAD | 4.467 | inhibitor, partial curve |
| `O=C(OC1C[C@H]2CC[C@@H](C1)[N+]21CCCC1)C(O)(c1ccccc1)c1ccccc1` (some centres undefined) | PC26 | 3.381 | inhibitor, partial curve |
| `O=C(OC1C[C@H]2CC[C@@H](C1)[N+]21CCCC1)C(O)(c1ccccc1)c1ccccc1` (some centres undefined) | SC27B | 5.012 | inhibitor, partial curve |
| `CC[C@]1(O)CC[C@H]2[C@@H]3CCC4=CCCC[C@@H]4[C@H]3CC[C@@]21C` | CP265 | 3.548 | inhibitor, single point |
| `CC[C@]1(O)CC[C@H]2[C@@H]3CCC4=CCCC[C@@H]4[C@H]3CC[C@@]21C` | CP250 | 3.548 | inhibitor, single point |
| `CC[C@]1(O)CC[C@H]2[C@@H]3CCC4=CCCC[C@@H]4[C@H]3CC[C@@]21C` | N140 | 1 | inhibitor, single point |
| `CC[C@]1(O)CC[C@H]2[C@@H]3CCC4=CCCC[C@@H]4[C@H]3CC[C@@]21C` | P93_24 | 11.22 | inhibitor, single point |
| `CC[C@]1(O)CC[C@H]2[C@@H]3CCC4=CCCC[C@@H]4[C@H]3CC[C@@]21C` | ATS95 | 11.22 | inhibitor, single point |
| `CC[C@]1(O)CC[C@H]2[C@@H]3CCC4=CCCC[C@@H]4[C@H]3CC[C@@]21C` | ICS | 6.31 | inhibitor, partial curve |
| `CC[C@]1(O)CC[C@H]2[C@@H]3CCC4=CCCC[C@@H]4[C@H]3CC[C@@]21C` | CP191 | 3.981 | inhibitor, single point |
| `CC[C@]1(O)CC[C@H]2[C@@H]3CCC4=CCCC[C@@H]4[C@H]3CC[C@@]21C` | ATS189 | 1.122 | inhibitor, single point |
| `CC[C@]1(O)CC[C@H]2[C@@H]3CCC4=CCCC[C@@H]4[C@H]3CC[C@@]21C` | CP185 | 3.981 | inhibitor, single point |
| `CC[C@]1(O)CC[C@H]2[C@@H]3CCC4=CCCC[C@@H]4[C@H]3CC[C@@]21C` | CP256 | 3.548 | inhibitor, single point |
| `CC[C@]1(O)CC[C@H]2[C@@H]3CCC4=CCCC[C@@H]4[C@H]3CC[C@@]21C` | CP305 | 12 | inhibitor, single point |
| `CC[C@]1(O)CC[C@H]2[C@@H]3CCC4=CCCC[C@@H]4[C@H]3CC[C@@]21C` | DIV17 | 12 | inhibitor, single point |
| `CC[C@]1(O)CC[C@H]2[C@@H]3CCC4=CCCC[C@@H]4[C@H]3CC[C@@]21C` | CP217 | 3.548 | inhibitor, single point |
| `CC[C@]1(O)CC[C@H]2[C@@H]3CCC4=CCCC[C@@H]4[C@H]3CC[C@@]21C` | AS120 | 5.623 | inhibitor, single point |
| `CC[C@]1(O)CC[C@H]2[C@@H]3CCC4=CCCC[C@@H]4[C@H]3CC[C@@]21C` | DFO2036 | 1.995 | inhibitor, single point |
| `CC[C@]1(O)CC[C@H]2[C@@H]3CCC4=CCCC[C@@H]4[C@H]3CC[C@@]21C` | PAD | 10 | inhibitor, single point |
| `CC[C@]1(O)CC[C@H]2[C@@H]3CCC4=CCCC[C@@H]4[C@H]3CC[C@@]21C` | DIV30 | 12 | inhibitor, single point |
| `CC[C@]1(O)CC[C@H]2[C@@H]3CCC4=CCCC[C@@H]4[C@H]3CC[C@@]21C` | DIV14 | 13.46 | inhibitor, partial curve |
| `CCC1OC(=O)C[C@@H](O)[C@H](C)[C@@H](OC2OC(C)CC(N(C)C)C2O)[C@@H](CC=O)C[C@@H](C)C(=O)/C=C/[C@]2(C)OC2C1C` (some centres undefined) | CP217 | 4.467 | inhibitor, partial curve |
| `CCC1OC(=O)C[C@@H](O)[C@H](C)[C@@H](OC2OC(C)CC(N(C)C)C2O)[C@@H](CC=O)C[C@@H](C)C(=O)/C=C/[C@]2(C)OC2C1C` (some centres undefined) | CP211 | 1.901 | inhibitor, partial curve |
| `CCC1OC(=O)C[C@@H](O)[C@H](C)[C@@H](OC2OC(C)CC(N(C)C)C2O)[C@@H](CC=O)C[C@@H](C)C(=O)/C=C/[C@]2(C)OC2C1C` (some centres undefined) | CP191 | 5.012 | inhibitor, partial curve |
| `CCC1OC(=O)C[C@@H](O)[C@H](C)[C@@H](OC2OC(C)CC(N(C)C)C2O)[C@@H](CC=O)C[C@@H](C)C(=O)/C=C/[C@]2(C)OC2C1C` (some centres undefined) | ECU | 4.467 | inhibitor, partial curve |
| `CCC1OC(=O)C[C@@H](O)[C@H](C)[C@@H](OC2OC(C)CC(N(C)C)C2O)[C@@H](CC=O)C[C@@H](C)C(=O)/C=C/[C@]2(C)OC2C1C` (some centres undefined) | CP262 | 0.9528 | inhibitor, full curve |
| `CCC1OC(=O)C[C@@H](O)[C@H](C)[C@@H](OC2OC(C)CC(N(C)C)C2O)[C@@H](CC=O)C[C@@H](C)C(=O)/C=C/[C@]2(C)OC2C1C` (some centres undefined) | N140 | 5.623 | inhibitor, partial curve, poor fit |
| `CCC1OC(=O)C[C@@H](O)[C@H](C)[C@@H](OC2OC(C)CC(N(C)C)C2O)[C@@H](CC=O)C[C@@H](C)C(=O)/C=C/[C@]2(C)OC2C1C` (some centres undefined) | CP215 | 3.381 | inhibitor, partial curve |
| `CCC1OC(=O)C[C@@H](O)[C@H](C)[C@@H](OC2OC(C)CC(N(C)C)C2O)[C@@H](CC=O)C[C@@H](C)C(=O)/C=C/[C@]2(C)OC2C1C` (some centres undefined) | ATS189 | 5.012 | inhibitor, partial curve |
| `CCC1OC(=O)C[C@@H](O)[C@H](C)[C@@H](OC2OC(C)CC(N(C)C)C2O)[C@@H](CC=O)C[C@@H](C)C(=O)/C=C/[C@]2(C)OC2C1C` (some centres undefined) | DIV30 | 1.51 | inhibitor, partial curve, poor fit |
| `CCC1OC(=O)C[C@@H](O)[C@H](C)[C@@H](OC2OC(C)CC(N(C)C)C2O)[C@@H](CC=O)C[C@@H](C)C(=O)/C=C/[C@]2(C)OC2C1C` (some centres undefined) | ATS95 | 4.467 | inhibitor, partial curve |

2 of the entries, repeated:

SMILES,setting,potency (µM),curve
CC[C@]1(O)CC[C@H]2[C@@H]3CCC4=CCCC[C@@H]4[C@H]3CC[C@@]21C,ATS95,11.22,"inhibitor, single point"
CC[C@]1(O)CC[C@H]2[C@@H]3CCC4=CCCC[C@@H]4[C@H]3CC[C@@]21C,ATS189,1.122,"inhibitor, single point"